The target of test [1] is Nedd8 activating enzyme (NAE), heterodimer of APPBP1 and Uba3 (UniProt Q13564). In words: thioester conjugate formation (SDS-PAGE, Western blot); 5 µM biotin labeled peptide with 1 µM NAE, 1 µM Ubc12 and 1 µM cullin, 1 mM ATP, 10 mM MgCl2, 50 µM DTT, TBS, 1 hour, room temperature; streptavidin-HRP blot; covalent conjugates; both purified.
In the next test the target is T1, Ubc12 (UniProt P61081 1-183).
T1 construct: also called E2; source: expressed and purified as previously reported [33]
T1 sequence (looked up): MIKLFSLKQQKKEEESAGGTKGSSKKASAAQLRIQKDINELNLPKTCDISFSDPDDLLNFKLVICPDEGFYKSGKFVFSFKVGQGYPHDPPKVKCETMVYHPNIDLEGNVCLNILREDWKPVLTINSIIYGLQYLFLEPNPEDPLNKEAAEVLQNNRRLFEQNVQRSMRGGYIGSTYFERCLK
The test is described as above.

Amino acid sequences for entries named in this document (tags omitted). A change or cut given only in a name is not applied to a line headed by its entry.
UniProt Q13564: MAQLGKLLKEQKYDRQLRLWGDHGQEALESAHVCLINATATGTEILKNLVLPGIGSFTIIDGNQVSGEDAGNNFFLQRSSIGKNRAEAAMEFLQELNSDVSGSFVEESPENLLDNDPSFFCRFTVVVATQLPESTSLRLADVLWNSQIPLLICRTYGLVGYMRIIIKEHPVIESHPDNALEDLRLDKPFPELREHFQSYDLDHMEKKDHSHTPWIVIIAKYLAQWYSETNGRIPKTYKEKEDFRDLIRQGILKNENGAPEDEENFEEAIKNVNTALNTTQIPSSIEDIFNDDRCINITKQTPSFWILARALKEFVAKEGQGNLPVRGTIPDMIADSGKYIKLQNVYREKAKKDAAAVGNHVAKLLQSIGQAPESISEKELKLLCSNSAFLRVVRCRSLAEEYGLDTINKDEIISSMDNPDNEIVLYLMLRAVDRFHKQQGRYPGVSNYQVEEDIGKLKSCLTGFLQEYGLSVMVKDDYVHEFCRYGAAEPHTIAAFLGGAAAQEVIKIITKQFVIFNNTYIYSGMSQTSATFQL

Test [2] addresses Nedd8 activating enzyme (NAE), heterodimer of APPBP1 and Uba3 (UniProt Q13564). In words: inhibition of thioester conjugate formation (SDS-PAGE, Western blot); 10, 20 and 50 µM peptide preincubated with 1 µM NAE, 1 mM ATP, 10 mM MgCl2, TBS, 1 hour, room temperature; then 5 µM HA-Nedd8 for 15 min; anti-HA blot; both purified. In general terms: In western blotting, separated proteins are transferred to a membrane and probed.

Results are given in words; binding and its absence hold for the method and conditions named. Some entries that bind do so weakly or less than the wild type.

B1: biotin-pN7 (VMLFYGG) (peptide)
peptide: VMLFYGG
modifications: biotin (NHS-LC-LC-biotin) on the N-terminal amino group
B1: the binding result is “binds” in test [1] and “binds weakly” with Ubc12.

B2: biotin-pN1 (VWLSYGG) (peptide)
peptide: VWLSYGG
modifications: biotin (NHS-LC-LC-biotin) on the N-terminal amino group
As for B2, the binding entry in test [1] is on record as “binds”; in the test with Ubc12, “no binding (tested: 5 µM)”.

B3: peptide pN26 (70VLALRGG76) (peptide)
peptide: VLALRGG
For the molecule B3, in test [2], the binding result is given as “binds”.

B4: biotin-pN26 (VLALRGG) (peptide)
peptide: VLALRGG
modifications: biotin (NHS-LC-LC-biotin) on the N-terminal amino group
Regarding B4, the binding result in test [1] is recorded as “binds”.

B5: peptide pN7 (70VMLFYGG76) (peptide)
peptide: VMLFYGG
Take B5: in test [2], the binding entry is recorded as “binds”.

B6: peptide pN1 (70VWLSYGG76) (peptide)
peptide: VWLSYGG
B6: in test [2], the binding result is given as “binds”.

The values above are taken from publication PMC3731359 (PLoS ONE, 2013).
